Results reported in the supplement of paper PMC8728848.
Some of the results follow.

Legend:
Assay in all cases: glycan array binding signal (z-score within array); higher = stronger binding
Conditions in all cases: glycan notation: IUPAC condensed, linker removed
[1] = target: Fuc(a1-3)[Gal3S(b1-4)]GlcNAc6S
Summary of the method: (§1)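 Glycan array data came from 3228 arrays in the Consortium for Functional Glycomics database, and only arrays with an available protein sequence were kept. Glycan names were put into IUPAC-condensed notation, and columns mapping to the same glycan were averaged. The binding signal is a within-array Z-score, averaged across arrays of one protein sequence run at different concentrations or buffers and across linkers. A negative Z-score can be read as non-binding.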

[2] = target: Fuc(a1-3)[GalNAc(b1-4)]GlcNAc
Summary of the method: as §1

[3] = target: Fuc(a1-3)[GalNAc(b1-4)]GlcNAc6S
Summary of the method: as §1

Fuc(a1-4)GlcNAc = target: Fuc(a1-4)GlcNAc
Summary of the method: as §1

Fuc(b1-3)GlcNAc = target: Fuc(b1-3)GlcNAc
Summary of the method: as §1

Gal(a1-2)Gal = target: Gal(a1-2)Gal
Summary of the method: as §1

Gal(a1-3)Gal = target: Gal(a1-3)Gal
Summary of the method: as §1

Gal(a1-3)Gal(b1-3)GlcNAc = target: Gal(a1-3)Gal(b1-3)GlcNAc
Summary of the method: as §1

[4] = target: Gal(a1-3)Gal(b1-3)GlcNAc(b1-2)Man
Summary of the method: as §1

[5] = target: Gal(a1-3)Gal(b1-3)GlcNAc(b1-2)Man(a1-3)[Gal(a1-3)Gal(b1-3)GlcNAc(b1-2)Man(a1-6)]Man(b1-4)GlcNAc(b1-4)GlcNAc
Summary of the method: as §1

[6] = target: Gal(a1-3)Gal(b1-3)GlcNAc(b1-3)GalNAc
Summary of the method: as §1

[7] = target: Gal(a1-3)Gal(b1-3)GlcNAc(b1-6)GalNAc
Summary of the method: as §1

[8] = target: Gal(a1-3)Gal(b1-3)[Fuc(a1-4)]GlcNAc(b1-2)Man(a1-3)[Gal(a1-3)Gal(b1-3)[Fuc(a1-4)]GlcNAc(b1-2)Man(a1-6)]Man(b1-4)GlcNAc(b1-4)GlcNAc
Summary of the method: as §1

Gal(a1-3)Gal(b1-4)Glc = target: Gal(a1-3)Gal(b1-4)Glc
Summary of the method: as §1

Gal(a1-3)Gal(b1-4)GlcNAc = target: Gal(a1-3)Gal(b1-4)GlcNAc
Summary of the method: as §1

[9] = target: Gal(a1-3)Gal(b1-4)GlcNAc(b1-2)Man
Summary of the method: as §1

[10] = target: Gal(a1-3)Gal(b1-4)GlcNAc(b1-2)Man(a1-3)[Gal(a1-3)Gal(b1-4)GlcNAc(b1-2)Man(a1-6)]Man(b1-4)GlcNAc(b1-4)GlcNAc
Summary of the method: as §1

[11] = target: Gal(a1-3)Gal(b1-4)GlcNAc(b1-3)GalNAc
Summary of the method: as §1

[12] = target: Gal(a1-3)Gal(b1-4)GlcNAc(b1-6)GalNAc
Summary of the method: as §1

[13] = target: Gal(a1-3)Gal(b1-4)[Fuc(a1-3)]GlcNAc
Summary of the method: as §1

[14] = target: Gal(a1-3)Gal(b1-4)[Fuc(a1-3)]GlcNAc(b1-2)Man(a1-3)[Gal(a1-3)Gal(b1-4)[Fuc(a1-3)]GlcNAc(b1-2)Man(a1-6)]Man(b1-4)GlcNAc(b1-4)GlcNAc
Summary of the method: as §1

Gal(a1-3)GalNAc = target: Gal(a1-3)GalNAc
Summary of the method: as §1

[15] = target: Gal(a1-3)[Gal(a1-4)]Gal(b1-4)GlcNAc
Summary of the method: as §1

[16] = target: Gal(a1-4)Gal(b1-3)GlcNAc(b1-2)Man(a1-3)[Gal(a1-4)Gal(b1-3)GlcNAc(b1-2)Man(a1-6)]Man(b1-4)GlcNAc(b1-4)GlcNAc
Summary of the method: as §1

Gal(a1-4)Gal(b1-4)Glc = target: Gal(a1-4)Gal(b1-4)Glc
Summary of the method: as §1

Gal(a1-4)Gal(b1-4)GlcNAc = target: Gal(a1-4)Gal(b1-4)GlcNAc
Summary of the method: as §1

[17] = target: Gal(a1-4)Gal(b1-4)GlcNAc(b1-2)Man(a1-3)[Gal(a1-4)Gal(b1-4)GlcNAc(b1-2)Man(a1-6)]Man(b1-4)GlcNAc(b1-4)GlcNAc
Summary of the method: as §1

[18] = target: Gal(a1-4)Gal(b1-4)GlcNAc(b1-3)Gal(b1-4)Glc
Summary of the method: as §1

Gal(a1-4)GlcNAc = target: Gal(a1-4)GlcNAc
Summary of the method: as §1

Gal(a1-6)Glc = target: Gal(a1-6)Glc
Summary of the method: as §1

Gal(b1-2)Gal = target: Gal(b1-2)Gal
Summary of the method: as §1

Gal(b1-3)Gal = target: Gal(b1-3)Gal
Summary of the method: as §1

Gal(b1-3)Gal(b1-4)GlcNAc = target: Gal(b1-3)Gal(b1-4)GlcNAc
Summary of the method: as §1

Gal(b1-3)GalNAc = target: Gal(b1-3)GalNAc
Summary of the method: as §1

[19] = target: Gal(b1-3)GalNAc(a1-3)[Fuc(a1-2)]Gal(b1-4)Glc
Summary of the method: as §1

[20] = target: Gal(b1-3)GalNAc(a1-3)[Fuc(a1-2)]Gal(b1-4)GlcNAc
Summary of the method: as §1

Gal(b1-3)GalNAc(b1-3)Gal = target: Gal(b1-3)GalNAc(b1-3)Gal
Summary of the method: as §1

B1: RobpsCRA (Robinia pseudoacacia) (protein)
chain: IKGGYWYSGSGLAVSDINPSHFTHLFCAFADLDPNTNKLTISSSNAAAFSTFTQTVRAKNPSVKTLLSIGGGGGRALAAVFANMASQASRRKSFIDSSIQLARRNNFHGLDLDWEYPSSDIDKTNFASLIREWRAAVATESSTSGTPALLLSAAVGGSDQITPLKYYPGEAIANNLDWVNVMTYDLYTSDSYPTLTQPPAPLFYPRGIFSADEGITKWIQSGVPESKLALGLPFYGFKWRLSDPNNHGLFAPATQGLGAVKYKDIVNTGGQVEFDSTYVTNYCFKGTDWYGYDDTQSISAKVAYAKQRGLFGYFAWHIEQDSNWALS
- glycan array binding signal (z-score) [1]: 0.763
- glycan array binding signal (z-score) [2]: 1
- glycan array binding signal (z-score) [3]: 0.373
- glycan array binding signal (z-score) (Fuc(a1-4)GlcNAc): -0.31
- glycan array binding signal (z-score) (Fuc(b1-3)GlcNAc): 0.048
- glycan array binding signal (z-score) (Gal(a1-2)Gal): -0.237
- glycan array binding signal (z-score) (Gal(a1-3)Gal): 1.27
- glycan array binding signal (z-score) (Gal(a1-3)Gal(b1-3)GlcNAc): 0.181
- glycan array binding signal (z-score) [4]: 0.797
- glycan array binding signal (z-score) [5]: -0.7
- glycan array binding signal (z-score) [6]: -0.793
- glycan array binding signal (z-score) [7]: -0.356
- glycan array binding signal (z-score) [8]: 0.581
- glycan array binding signal (z-score) (Gal(a1-3)Gal(b1-4)Glc): -0.053
- glycan array binding signal (z-score) (Gal(a1-3)Gal(b1-4)GlcNAc): 0.596
- glycan array binding signal (z-score) [9]: -0.591
- glycan array binding signal (z-score) [10]: -0.144
- glycan array binding signal (z-score) [11]: -0.684
- glycan array binding signal (z-score) [12]: -0.768
- glycan array binding signal (z-score) [13]: -0.553
- glycan array binding signal (z-score) [14]: -0.037
- glycan array binding signal (z-score) (Gal(a1-3)GalNAc): 0.48
- glycan array binding signal (z-score) [15]: 1.85
- glycan array binding signal (z-score) [16]: 0.762
- glycan array binding signal (z-score) (Gal(a1-4)Gal(b1-4)Glc): -0.252
- glycan array binding signal (z-score) (Gal(a1-4)Gal(b1-4)GlcNAc): 0.31
- glycan array binding signal (z-score) [17]: 0.418
- glycan array binding signal (z-score) [18]: -0.34
- glycan array binding signal (z-score) (Gal(a1-4)GlcNAc): -0.505
- glycan array binding signal (z-score) (Gal(a1-6)Glc): -0.118
- glycan array binding signal (z-score) (Gal(b1-2)Gal): -0.839
- glycan array binding signal (z-score) (Gal(b1-3)Gal): -0.71
- glycan array binding signal (z-score) (Gal(b1-3)Gal(b1-4)GlcNAc): -0.384
- glycan array binding signal (z-score) (Gal(b1-3)GalNAc): -0.508
- glycan array binding signal (z-score) [19]: -0.539
- glycan array binding signal (z-score) [20]: 0.085
- glycan array binding signal (z-score) (Gal(b1-3)GalNAc(b1-3)Gal): -0.091
